Test results taken from paper PMC11671014 (PLOS Pathogens, 2024).
Values joined by “and” are separate entries in the source; they are usually repeats but may differ in a detail not shown here. Equal entries are not always repeated. The amount applied is not stated for every result.

Tested on: Dd2-B2 parasites
Assay: Minimum inoculum of resistance (MIR) selection
Assay type: cell-based, Plasmodium falciparum
Settings: for Minimum Inoculum for Resistance (MIR): Dd2-B2, ML901 at 3 x IC50, ML471 and DSM265 at 10 x IC50
Method: MIR studies were conducted for ML901 and ML471 using a modified “Gate keeper assay” [34]. […] For ML901, the parasites (starting parasite inoculums of 1x10^7 or 1x10^8 in triplicate) were subjected to pressure at 3 x IC50, with recrudescence on days 12–14. […] The different pressure regimens reflect the standard protocols in the Fidock lab used at the times of analysis. Wells were monitored daily by smear during the first seven days to ensure parasite clearance, during which media was changed daily. Thereafter, cultures were screened three times weekly by flow cytometry and smearing, and the selection maintained a consistent drug pressure over 60 days. […] Whole-genome sequencing analysis identified CNVs in chromosome 8 segments, always containing the PfTyrRS locus, consistent with our earlier evidence of this as the target of ML901 [16]. Single nucleotide polymorphism (SNP) filtering was lowered to 0.5 allelic balance (AB) but yielded no point mutations in the core genome.

| Compound | Minimum Inoculum for Resistance (MIR) | Day of recrudescence (selection with 2x10^5 parasites per well, 10 x IC50) | Day of recrudescence (selection with 10^7 parasites, 3 x IC50 (flasks in brackets)) | Day of recrudescence (selection with 10^8 parasites, 3 x IC50 (flasks in brackets)) |
| --- | --- | --- | --- | --- |
| CC(C)c1nn([C@@H]2O[C@H](COS(N)(=O)=O)[C@@H](O)[C@H]2O)c2ncnc(N)c12 [ML471, ((2R,3S,4R,5R)-5-(4-amino-3-isopropyl-1H-pyrazolo[3,4-d]pyrimidin-1-yl)-3,4-dihydroxytetrahydrofuran-2-yl)methyl sulfamate] | 7.1 x10^5 | 18 (29/96 wells) day | – | – |
| Nc1ncnc2c1c(OC(F)F)nn2[C@@H]1O[C@H](COS(N)(=O)=O)[C@@H](O)[C@H]1O [ML901] | < 10^7 and 10^7 | – | 12 (1/3), 14 (2/3) day | 14 (3/3) day |
